This passage reports cell viability results from the supplement of paper PMC3682954.

This test has as its system RAW 264.7. In words: cell viability (MTT) relative to vehicle control; higher = more viable cells. To be noted: stimulus: HMGB1 5 ug/ml, 18 h.
Where [1] appears, read: compound concentration: 1 ug/ml.

Counter-ions that a name gives are not always drawn. ± gives the standard deviation of the averaged measurements. The list shows a part of the results. Repeats are few or missing, and single values can be far off.

With `Cn1c(=O)[nH]c2c([nH]c(=O)n2C)c1=O` [1,9-dimethyluric acid], the cell viability under setting [1] amounted to 96.9%.
In the case of `COc1c(O[C@@H]2O[C@H](CO)[C@@H](O)[C@H](O)[C@H]2O)cc2c(c1OC)-c1ccc(SC)c(=O)cc1[C@@H](NC(C)=O)CC2` [Thiocolchicoside], the cell viability (compound concentration: 3 uM) stood at 82.7%.
For `CN(C)CCN(Cc1cccs1)c1ccccn1`, the cell viability (compound concentration: 3 uM) turned out to be 116%.
Same read-out and setting: in the case of `CN(C)CCN(Cc1cccs1)c1ccccn1` [Methapyrilene hydrochloride] it was 101 ± 19%.
On to `COc1ccc(CCNc2nc(Cl)nc(N3CC4CC(C3)c3cccc(=O)n3C4)n2)cc1OC` (centres undefined), for which, under setting [1], the cell viability is 108%.
In the case of `NC(=O)N1c2ccccc2C=Cc2ccccc21` [Carbamazepine], the cell viability (compound concentration: 3 uM) amounted to 99.8 ± 6%.
Consider `NC(=O)N1c2ccccc2C=Cc2ccccc21`, for which, under “compound concentration: 3 uM”, the cell viability was 107%.
`CCOC(=O)C1=C(C)NC(C)=C(C(=O)OCC)C1c1c(F)c(F)c(F)c(F)c1F` [Nemadipine-A]: where the note is “compound concentration: 3 uM”, the cell viability is 111%.
As to `Clc1ccc(C(Cn2ccnc2)OCc2c(Cl)cccc2Cl)c(Cl)c1` (centres undefined) [Isoconazole], the cell viability (compound concentration: 3 uM) was determined as 98.5%.
Turning to `NCCC[C@H](N)C(=O)O`, where the note is “compound concentration: 3 uM”, the cell viability worked out at 112%.
Take `CCSC(=N)N` [S-Ethylisothiourea hydrobromide]: the cell viability (compound concentration: 3 uM) turned out to be 107%.
For the compound `CCCCC[C@H](O)/C=C/[C@@H]1[C@@H](C/C=C\CCCC(=O)O)[C@@H](O)C[C@H]1O` [Dinoprost trometamol], for the setting “compound concentration: 3 uM”, the cell viability worked out at 102%.
`CCCCC[C@H](O)/C=C/[C@@H]1[C@@H](C/C=C\CCCC(=O)O)[C@@H](O)C[C@H]1O` [Dinoprost]: the cell viability (compound concentration: 3 uM) came out at 102%.
Turning to `CC(=O)c1ccc(S(=O)(=O)NC(=O)NC2CCCCC2)cc1`, the cell viability (compound concentration: 3 uM) worked out at 109%.
Consider `CC(=O)c1ccc(S(=O)(=O)NC(=O)NC2CCCCC2)cc1` [Acetohexamide], for which, where the note is “compound concentration: 3 uM”, the cell viability came to 99.9 ± 12%.
On the same count and under the same terms, as for `CC(COc1ccccc1)N(CCCl)Cc1ccccc1` (centres undefined) [Phenoxybenzamine hydrochloride], the figure is 94.5 ± 1.6%; as for `CC(COc1ccccc1)N(CCCl)Cc1ccccc1` (centres undefined) [Phenoxybenzamine HCl], 105%; as for `CC(COc1ccccc1)N(CCCl)Cc1ccccc1` (centres undefined), 108%.
Still for that read-out and setting: as for `Nc1ncn([C@@H]2O[C@H](CO)[C@@H](O)[C@H]2O)c(=O)n1`, the figure is 71.6 ± 18%.
For the compound `Nc1ncn([C@@H]2O[C@H](CO)[C@@H](O)[C@H]2O)c(=O)n1` [5-azacytidine], where the note is “compound concentration: 3 uM”, the cell viability was found to be 61.2%.
As to `COc1ccc(CN(CCN(C)C)c2ccccn2)cc1` [Mepyramine], the cell viability (compound concentration: 3 uM) was 94.6%.
As to `COc1ccc(CN(CCN(C)C)c2ccccn2)cc1`, the cell viability (compound concentration: 3 uM) was determined as 99.2%.
Take `COc1ccc(CN(CCN(C)C)c2ccccn2)cc1` [Pyrilamine maleate]: the cell viability (compound concentration: 3 uM) came to 101 ± 2%.
Take `CCCNC(C)C(=O)Nc1ccccc1C` (centres undefined): for the setting “compound concentration: 3 uM”, the cell viability came out at 102%.
Still for that read-out and setting: in the case of `CCCNC(C)C(=O)Nc1ccccc1C` (centres undefined) [Prilocaine hydrochloride] it was 100 ± 2.6%.
In the case of `CNc1ncnc2c1ncn2[C@H]1C[C@H](OP(=O)(O)O)[C@@H](COP(=O)(O)O)O1`, the cell viability (compound concentration: 3 uM) is 103%.
`CC(C)C[C@H](NC(=O)[C@@H](COC(C)(C)C)NC(=O)[C@H](Cc1ccc(O)cc1)NC(=O)[C@H](CO)NC(=O)[C@H](Cc1c[nH]c2ccccc12)NC(=O)[C@H](Cc1cnc[nH]1)NC(=O)[C@@H]1CCC(=O)N1)C(=O)N[C@@H](CCCNC(=N)N)C(=O)N1CCC[C@H]1C(=O)NNC(N)=O`: the cell viability (compound concentration: 3 uM) was 98.1%.
As for `CC(C)C[C@H](NC(=O)[C@@H](COC(C)(C)C)NC(=O)[C@H](Cc1ccc(O)cc1)NC(=O)[C@H](CO)NC(=O)[C@H](Cc1c[nH]c2ccccc12)NC(=O)[C@H](Cc1cnc[nH]1)NC(=O)[C@@H]1CCC(=O)N1)C(=O)N[C@@H](CCCNC(=N)N)C(=O)N1CCC[C@H]1C(=O)NNC(N)=O` [Goserelin], for the setting “compound concentration: 3 uM”, the cell viability was 112%.
Regarding `Cc1cc(=O)oc2cc(O)ccc12` [Hymecromone], for the setting “compound concentration: 3 uM”, the cell viability is 126%.
`CNC(=O)c1cc2c(cn1)[nH]c1ccccc12` [N-Methyl-beta-carboline-3-carboxamide]: the cell viability (compound concentration: 3 uM) was determined as 108%.
With `CCC(=O)N1CCN(C(=O)c2ccccc2)CC1`, where the note is “compound concentration: 3 uM”, the cell viability turned out to be 109%.
Turning to `CCCN[C@H]1CCc2nc(N)sc2C1` [Pramipexole], the cell viability (compound concentration: 3 uM) came out at 102 ± 10%.
Take `CCCN[C@H]1CCc2nc(N)sc2C1`: the cell viability (compound concentration: 3 uM) amounted to 90%.
Still for that read-out and setting: in the case of `OC[C@H]1O[C@H]([S-])[C@H](O)[C@@H](O)[C@@H]1O.[Au+]` [Aurothioglucose] it was 94.3%; in that of `OC[C@H]1O[C@H]([S-])[C@H](O)[C@@H](O)[C@@H]1O.[Au+]`, 103%; in that of `CCOC(=O)c1ccc(OC(=O)CCCCCNC(=N)N)cc1`, 101%.
As to `CCOC(=O)c1ccc(OC(=O)CCCCCNC(=N)N)cc1` [Gabexate mesilate], under “compound concentration: 3 uM”, the cell viability came out at 84.8%.
On the same count and under the same terms, in the case of `CC[C@]1(O)C[C@@H]2CN(CCc3c([nH]c4ccccc34)[C@@](C(=O)OC)(c3cc4c(cc3OC)N(C)[C@H]3[C@@](O)(C(N)=O)[C@H](O)[C@]5(CC)C=CCN6CC[C@]43[C@@H]65)C2)C1` [Vindesine] it was 99.4%.
For the compound `CC[C@]1(O)C[C@@H]2CN(CCc3c([nH]c4ccccc34)[C@@](C(=O)OC)(c3cc4c(cc3OC)N(C)[C@H]3[C@@](O)(C(N)=O)[C@H](O)[C@]5(CC)C=CCN6CC[C@]43[C@@H]65)C2)C1`, the cell viability (compound concentration: 3 uM) turned out to be 68.8%.

What is called cell viability is a read-out of living cells in per cent, often relative to untreated cells.
